# Measurements as given in PubChem BioAssay AID1671190 (National Center for Advancing Translational Sciences (NCATS), 2021).
# Chains of the proteins cited; added tags and fusions are not shown. Lines headed by an entry give the natural chain unless they say otherwise; changes in a name come on top.
# UniProt P18054: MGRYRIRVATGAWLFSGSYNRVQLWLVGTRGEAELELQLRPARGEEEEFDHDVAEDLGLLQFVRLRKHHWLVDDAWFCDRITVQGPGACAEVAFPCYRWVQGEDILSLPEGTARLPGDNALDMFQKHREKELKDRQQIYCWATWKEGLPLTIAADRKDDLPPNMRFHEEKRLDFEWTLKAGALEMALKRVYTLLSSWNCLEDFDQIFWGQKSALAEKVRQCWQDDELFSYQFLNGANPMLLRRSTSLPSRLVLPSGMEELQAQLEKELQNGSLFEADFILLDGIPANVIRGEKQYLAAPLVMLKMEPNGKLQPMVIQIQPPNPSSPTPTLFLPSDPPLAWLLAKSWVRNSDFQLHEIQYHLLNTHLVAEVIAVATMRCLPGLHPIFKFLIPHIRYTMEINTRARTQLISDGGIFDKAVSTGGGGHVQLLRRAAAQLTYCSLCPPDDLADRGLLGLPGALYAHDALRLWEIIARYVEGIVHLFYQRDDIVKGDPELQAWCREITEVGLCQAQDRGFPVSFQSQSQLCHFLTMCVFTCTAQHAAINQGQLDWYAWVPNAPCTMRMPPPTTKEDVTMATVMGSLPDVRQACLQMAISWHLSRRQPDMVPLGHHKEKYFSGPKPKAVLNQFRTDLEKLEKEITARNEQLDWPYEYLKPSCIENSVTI
# Out of some 580,000 compounds screened, about 6,100 (1.1%) were called active. This list was built around the results that the source calls inconclusive (neither active nor inactive); the mix of calls is not that of the screen. The call rests on the fitted dose curve; in most records, active means well fitted inhibition curve with a large enough effect; inconclusive means small, poorly fitted or top-dose-only effect, or another doubt; inactive means no such curve, though single readings can be large or run the other way. Potencies of inconclusive entries are doubtful fits and often do not repeat.
# Molecular target: Polyunsaturated fatty acid lipoxygenase ALOX12 (Homo sapiens) (UniProt P18054)
# Assay: Primary qHTS assay for inhibitors of human arachidonate 12S-lipoxygenase (ALOX12): Round 2
# Settings: purified 12hLO, xylenol orange hydroperoxide absorbance; activity change, negative = inhibition: at 108 µM (top of the series) unless noted
# Method in brief: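 Purified human 12hLO at 150 nM in 25 mM Hepes, 0.01% Triton X-100, pH 7.0, preincubated 15 min at room temperature with compound. Reaction started with 40 uM arachidonic acid, 30 min at room temperature. Hydroperoxide measured by Fe-xylenol orange, 573/405 nm absorbance ratio.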
# On the % scale 0 is the no-effect control and ±100 the full control effect; potency means the concentration at half of the fitted maximal effect.
Compound,Potency,"activity change, negative = inhibition"
CCNc1ccc(Br)cc(C(=O)/C=C/c2ccc(Cl)cc2Cl)c1=O,active: 7.08 µM,
CCN(C(=O)CN1C(=O)S/C(=C\c2cccc(Cl)c2)C1=O)C1CCS(=O)(=O)C1 (stereo unspecified),,inactive: 0%
COc1cc(SC)ccc1C(=O)Nc1ccncc1,,inactive: 7.76%
Cc1ccc(-n2c(-c3cccnc3)n[nH]c2=S)c(C)c1,"inconclusive: 0.282 µM [inhibitor, single point]",
c1cncc(-c2nc(Sc3ccc4c(c3)OCCCO4)c3ccccc3n2)c1,"inconclusive: 7.94 µM [inhibitor, full curve, poor fit]",
CCOC(CCNC(=O)c1cc2c(=O)[nH]c3ccccc3c2s1)OCC,,inactive: 4.49%
CCOC(=O)c1nnn(CC(=O)NC(=O)Nc2ccccc2F)c1C(=O)OCC,"inconclusive: 100 µM [inhibitor, partial curve, poor fit]",
COCOCCn1cc(CN2CCS(=O)(=O)N(Cc3ccc(-c4ccc(F)cc4)cc3)C(CC(C)C)C2=O)nn1 (stereo unspecified),"inconclusive: 89.1 µM [inhibitor, single point]",
CC(=O)n1cc([C@H]2C=C(C(=O)O)O[C@@H](OCCCCO)C2)c2ccccc21,"inconclusive: 31.6 µM [inhibitor, partial curve, poor fit]",
O=C1CC(C(=O)O)C2(CCCCC2)O1 (stereo unspecified),"inconclusive: 50.1 µM [inhibitor, partial curve, poor fit]",
CCOC1=C2CN(S(=O)(=O)c3ccc(C)cc3)[C@H](c3ccc(CC)cc3)C[C@@H]2N(S(=O)(=O)c2ccc(C)cc2)[C@H](c2ccccc2)C1,"inconclusive: 31.6 µM [inhibitor, single point]",
O=C1C=C(Nc2ccccc2C(=O)O)c2ccccc2C1=O,"inconclusive: 79.4 µM [inhibitor, partial curve, poor fit]",
C(=NN1CCCCCC1)c1ccc2c(c1)OCO2,"inconclusive: 44.7 µM [inhibitor, partial curve, poor fit]",
COc1cc(CNc2ncc(-c3ccc(Br)cc3)n2C)cc(OC)c1O,"inconclusive: 2.24 µM [inhibitor, full curve, poor fit]",
O=C1c2ccccc2C(c2nnnn2-c2ccc3c(c2)OCCO3)N1Cc1cccc(F)c1 (stereo unspecified),inactive,
CC1=C(CC[C@@H](C)CO)OC2CC3C4CCC5CC(O)CCC5(C)C4CC(=O)C3(C)C12 (stereo partly specified),,inactive: -10.8%
O=c1cc(O)n(-c2ccccc2)c(=S)[nH]1,"inconclusive: 14.1 µM [inhibitor, partial curve, poor fit]",
O=c1c2cc([N+](=O)[O-])cc([N+](=O)[O-])c2[nH]n1-c1ccccc1,,inactive: 0%
Cc1ccc(-c2cc(C(=O)N3CCN(Cc4ccc(C#N)cc4)CC3)c3ccccc3n2)o1,"inconclusive: 35.5 µM [inhibitor, partial curve]",
CCOc1ccc(Cc2n[nH]c(=S)n2N)cc1,"inconclusive: 70.8 µM [inhibitor, partial curve, poor fit]",
Cc1ccccc1CSc1ncc(Cl)c(C(=O)NCc2ccccc2)n1,"inconclusive: 20 µM [inhibitor, full curve]",
Cc1ccc(-c2cc(C(=O)NCC(C)C)c3ccccc3n2)o1,"inconclusive: 0.562 µM [inhibitor, full curve, poor fit]",

# Structures above that have an NH in an aromatic ring:
Compound,Potency,"activity change, negative = inhibition"
Cc1ccc(-n2c(-c3cccnc3)n[nH]c2=S)c(C)c1,"inconclusive: 0.282 µM [inhibitor, single point]",
CCOC(CCNC(=O)c1cc2c(=O)[nH]c3ccccc3c2s1)OCC,,inactive: 4.49%
O=c1cc(O)n(-c2ccccc2)c(=S)[nH]1,"inconclusive: 14.1 µM [inhibitor, partial curve, poor fit]",
O=c1c2cc([N+](=O)[O-])cc([N+](=O)[O-])c2[nH]n1-c1ccccc1,,inactive: 0%
CCOc1ccc(Cc2n[nH]c(=S)n2N)cc1,"inconclusive: 70.8 µM [inhibitor, partial curve, poor fit]",

# More records:

Compound,Potency,"activity change, negative = inhibition"
Cc1cn2nc(C(=O)Nc3ccc4c(c3)OCCO4)cc2c(N(C)Cc2ccccc2)n1,,inactive: 44.2%
NCc1cc(Cl)c2c(c1)OCCCO2,"inconclusive: 44.7 µM [inhibitor, single point]",
COc1ccccc1N1CCN(C(c2cccs2)C(C)NS(=O)(=O)c2ccccc2)CC1 (stereo unspecified),,inactive: 12.9%
CCO[C@@H]1OC(C(=O)NCc2ccccc2)=C[C@H](C(C)(C)C)[C@H]1CCCO,,inactive: 1.06%
CCC(=O)N1c2ccccc2CC1C(=O)NCCCN1CCN(c2cccc(Cl)c2)CC1 (stereo unspecified),"inconclusive: 63.1 µM [inhibitor, partial curve, poor fit]",
Brc1cccc(-c2nc3ccc(Br)cn3c2Cc2ccccc2)c1,"inconclusive: 79.4 µM [inhibitor, single point]",
O=C1c2cccc3cccc(c23)C(=O)N1c1ccccc1Cl,"inconclusive: 100 µM [inhibitor, single point]",
COc1ccc(C2c3c(n(C)c4ccccc34)C(=O)N2CC(=O)Nc2c(C)cc(C)cc2C)cc1 (stereo unspecified),"inconclusive: 44.7 µM [inhibitor, partial curve, poor fit]",
CCCCCn1nc(C(=O)Nc2nc3ccccc3[nH]2)c2ccccc2c1=O,"inconclusive: 89.1 µM [inhibitor, partial curve, poor fit]",
O=C(O)c1cccc(N2C(=O)c3cc([N+](=O)[O-])cc4cc([N+](=O)[O-])cc(c34)C2=O)c1,,inactive: -8.95%
COc1ccc(/C(O)=C2\C(=O)C(=O)N(c3cc(C)on3)C2c2cccc(OC)c2OC)cc1C (stereo unspecified),,inactive: 0%
Cc1ccc(-c2csc(N(CCCN3CCOCC3)C(=O)c3ccco3)n2)cc1,"inconclusive: 44.7 µM [inhibitor, partial curve, poor fit]",
COC(=O)C1N[C@@H]([C@@H](NC(=O)COc2ccccc2)C(=O)NCc2ccc(OC)cc2)SC1(C)C (stereo partly specified),"inconclusive: 44.7 µM [inhibitor, partial curve, poor fit]",
O=C(CCCOc1ccc(Cl)cc1Cl)Nc1cccnc1,"inconclusive: 22.4 µM [inhibitor, partial curve]",
CCS[C@H]1CCN2C(=O)c3cc(-c4ccc(F)cc4F)ccc3NC(=O)[C@H]12,active: 44.7 µM,
O=C(c1ccc(C(F)(F)F)cc1)C1CCCN(C(=O)CCn2cncn2)C1 (stereo unspecified),"inconclusive: 4.47 µM [inhibitor, full curve, poor fit]",
CCC1CCC(C(=O)NNC(=O)c2cc(-c3ccco3)[nH]n2)CC1 (stereo unspecified),"inconclusive: 50.1 µM [inhibitor, partial curve, poor fit]",
O=C(COC(=O)c1cc(S(=O)(=O)N2CCCCC2)ccc1N1CCOCC1)c1ccccc1,,inactive: -16.1%
Cc1ccc2c(c1)C(=O)OC(C(=O)Nc1ccc(C(=O)O)cc1)C2 (stereo unspecified),,inactive: -13.9%
O=C(Nc1sc2c(c1C(=O)c1ccc(Cl)cc1)CCCC2)c1cccnc1,"inconclusive: 50.1 µM [inhibitor, partial curve, poor fit]",
COc1ccc2cc(CN(Cc3cccnc3)S(=O)(=O)c3ccccc3)c(=O)[nH]c2c1,active: 44.7 µM,
O=C1NCc2ccccc2CC12CCN(CCCc1ccccc1)CC2,"inconclusive: 28.2 µM [inhibitor, full curve, poor fit]",

Compound,Potency,"activity change, negative = inhibition"
COCCNc1nc(-c2ccc(NC(=O)C(C)C)cc2)cs1,"inconclusive: 44.7 µM [inhibitor, partial curve, poor fit]",
CCOC(=O)/C(=C/c1ccc(OC(=O)c2ccccc2)cc1)C(C)=O,"inconclusive: 6.31 µM [inhibitor, full curve, poor fit]",
CCn1nc(C)c(CNC(=O)c2cc(COc3ccc(F)cc3Cl)on2)c1C,,inactive: -8.99%
O=C(Cc1coc(-c2ccccc2)n1)NC1CCCCCC1,,inactive: 5.5%
CCOc1cccc(OCCCNCCCOC)c1,"inconclusive: 0.631 µM [inhibitor, full curve, poor fit]",
Nc1cn(C2OC(CO)C(O)C2O)c(=O)[nH]c1=O (stereo unspecified),,inactive: 202%
c1ccc(C(CNCc2ccsc2)N2CCCC2)cc1 (stereo unspecified),"inconclusive: 50.1 µM [inhibitor, single point]",
CC(=O)Nc1ccc(C(=O)N(C2=NC(C)CS2)c2ccc(Cl)cc2)cc1 (stereo unspecified),"inconclusive: 126 µM [inhibitor, single point]",
N[C@@H](Cc1c[nH]c2ccc(O)cc12)C(=O)O,"inconclusive: 0.544 µM [inhibitor, full curve, poor fit]",
O=NN(CCF)C(=O)NC1CCS(=O)(=O)CC1,"inconclusive: 39.8 µM [inhibitor, partial curve, poor fit]",
FC(F)(F)c1nnc(N2CCN(c3ccc(Cl)cc3)CC2)s1,,inactive: 101%
O=C(c1cc(-c2cccs2)nn1-c1ccccc1)N1CCN(S(=O)(=O)c2ccccc2)CC1,"inconclusive: 50.1 µM [inhibitor, partial curve, poor fit]",
O=C(NN=Cc1ccc(Cl)cc1Cl)C1CC1,"inconclusive: 100 µM [inhibitor, partial curve, poor fit]",
Cn1c(SCC(N)=O)nnc1-c1cc2c(s1)CCC(C(C)(C)C)C2 (stereo unspecified),,inactive: -16.9%
CC1CCC(NC(=O)c2nnn3c2COC(c2ccc(F)cc2)C3)CC1 (stereo unspecified),,inactive: 26%
CC(C)(C)NC(=O)C(c1ccc(O)cc1)N(Cc1ccc2c(c1)OCO2)C(=O)CCl (stereo unspecified),"inconclusive: 39.8 µM [inhibitor, partial curve, poor fit]",
CCCCCc1c(Cc2ccccc2)ncn1CCc1ccccc1OC,"inconclusive: 100 µM [inhibitor, partial curve, poor fit]",
Cn1c(CN2CCOCC2)nnc1SCC(=O)Nc1nccs1,"inconclusive: 39.8 µM [inhibitor, partial curve, poor fit]",
Cc1nc(C)c(C(=O)N[C@@H]2CN(Cc3ccncc3)C[C@H]2CN(C)C)s1,,inactive: 82.9%
CC(=O)c1ccc(S(=O)(=O)Nc2ccc(-c3ccc(N4CCCCC4)nn3)cc2)cc1,,inactive: -6.24%
COc1ccc(Cn2c(C(=O)O)c(CNC3CCCC3)c3ccc(C)cc32)cc1,"inconclusive: 158 µM [inhibitor, partial curve, poor fit]",
CCc1ccc(NC(=O)Cn2ccn(-c3ccc(OC)cc3)c(=O)c2=O)cc1,"inconclusive: 158 µM [inhibitor, partial curve, poor fit]",
